Results deposited as PubChem BioAssay AID1224829 (NIAID, 2016).

Screen: 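Genes needed for LPS-driven NF-kappaB p65 nuclear entry in mouse macrophages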 (follow-up of hits)
System: mouse RAW264.7 G9 macrophage reporter cells
Knock-down reagent: single siRNA against mouse genes, 100 nM
Duration: 2 days of siRNA knock-down, then 40 min of LPS before fixing
Challenge: LPS (Salmonella minnesota R595) at 10 ng/ml
Measurement: 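High-content images after 40 min LPS exposure; GFP-p65 nucleus to surrounding ring signal ratio, normalised to plate median and non-targeting control wells, expressed as z-score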
Scale: p65 translocation z-score and gene median z-score, per vendor: higher = more nuclear NF-kappaB p65 after LPS
Active means: 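An siRNA is called active when the mean z-score of its two replicates is above 2 or below -2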
Meaning of the calls: active = changed p65 translocation (either direction); inactive = no clear change
Shown is an unselected part of about 3,800 deposited reagents. 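Calls cover raised and lowered translocation; gene median uses one vendor's three siRNAs; qiagen siRNAs acted more weakly than ambion siRNAs.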 Unmarked entries are inactive. The numbers tell different reagents against one gene apart.

| gene knocked down | reagent | siRNA vendor or control pool | p65 translocation z-score, replicate mean | p65 translocation z-score, replicate 1 | p65 translocation z-score, replicate 2 | gene median z-score, per vendor |
| --- | --- | --- | --- | --- | --- | --- |
| Mesp2 | 1 | ambion single siRNA | -2.11 (active) | -2.17 | -2.04 | -2.1 |
| Mesp2 | 2 | ambion single siRNA | -1.54 | -1.04 | -2.04 | -2.1 |
| Mesp2 | 3 | ambion single siRNA | -2.26 (active) | -2.36 | -2.17 | -2.1 |
| Mesp2 | 4 | qiagen single siRNA | 0.0782 | -1.58 | 1.74 | -1.64 |
| Mesp2 | 5 | qiagen single siRNA | – | – | – | -1.64 |
| Mesp2 | 6 | qiagen single siRNA | -2.48 (active) | -3.27 | -1.69 | -1.64 |
| Or4f7 | 1 | ambion single siRNA | -1.95 | -1.09 | -2.8 | -2.25 |
| Or4f7 | 2 | ambion single siRNA | -1.57 | -1.71 | -1.43 | -2.25 |
| Or4f7 | 3 | ambion single siRNA | -5.09 (active) | -4.57 | -5.6 | -2.25 |
| Or4f7 | 4 | qiagen single siRNA | 0.454 | -0.0759 | 0.984 | -0.222 |
| Or4f7 | 5 | qiagen single siRNA | -1.69 | -0.368 | -3.01 | -0.222 |
| Or4f7 | 6 | qiagen single siRNA | -0.361 | -0.0493 | -0.672 | -0.222 |
| Brd8 | 1 | ambion single siRNA | 0.853 | 0.662 | 1.04 | 0.185 |
| Brd8 | 2 | ambion single siRNA | 0.394 | 1.08 | -0.292 | 0.185 |
| Brd8 | 3 | ambion single siRNA | -5.77 (active) | -5.3 | -6.23 | 0.185 |
| Brd8 | 4 | qiagen single siRNA | 1.48 | 0.377 | 2.58 | -1.14 |
| Brd8 | 5 | qiagen single siRNA | -2.49 (active) | -2.39 | -2.59 | -1.14 |
| Brd8 | 6 | qiagen single siRNA | -1.14 | -0.847 | -1.44 | -1.14 |
| Phax | 1 | ambion single siRNA | 2.95 (active) | 4.46 | 1.44 | -2.45 |
| Phax | 2 | ambion single siRNA | -2.45 (active) | -3.09 | -1.81 | -2.45 |
| Phax | 3 | ambion single siRNA | -3.64 (active) | -3.54 | -3.74 | -2.45 |
| Phax | 4 | qiagen single siRNA | 2.24 (active) | 1.71 | 2.76 | 1.64 |
| Phax | 5 | qiagen single siRNA | 0.67 | -0.23 | 1.57 | 1.64 |
| Phax | 6 | qiagen single siRNA | 2.4 (active) | 0.681 | 4.11 | 1.64 |
| Zkscan14 | 1 | ambion single siRNA | -0.423 | -0.401 | -0.444 | -0.5 |
| Zkscan14 | 2 | ambion single siRNA | -1.21 | -0.555 | -1.86 | -0.5 |
| Zkscan14 | 3 | ambion single siRNA | -0.292 | -0.876 | 0.292 | -0.5 |
| Zkscan14 | 4 | qiagen single siRNA | -0.738 | -2.37 | 0.895 | 0.829 |
| Zkscan14 | 5 | qiagen single siRNA | 0.374 | 0.763 | -0.0156 | 0.829 |
| Zkscan14 | 6 | qiagen single siRNA | 3.39 (active) | 1.14 | 5.65 | 0.829 |
| Prkd2 | 1 | ambion single siRNA | -1.52 | -2.49 | -0.553 | -1.52 |
| Prkd2 | 2 | ambion single siRNA | 2.71 (active) | 3.45 | 1.96 | -1.52 |
| Prkd2 | 3 | ambion single siRNA | -3.78 (active) | -3.96 | -3.6 | -1.52 |
| Prkd2 | 4 | qiagen single siRNA | -0.805 | -1.11 | -0.495 | -3.46 |
| Prkd2 | 5 | qiagen single siRNA | -3.46 (active) | -3.46 | – | -3.46 |
| Prkd2 | 6 | qiagen single siRNA | -4.21 (active) | -3.72 | -4.69 | -3.46 |
| Fam110a | 1 | ambion single siRNA | 0.0934 | -0.968 | 1.16 | -1.33 |
| Fam110a | 2 | ambion single siRNA | -1.32 | -0.94 | -1.7 | -1.33 |
| Fam110a | 3 | ambion single siRNA | -2.37 (active) | -1.69 | -3.05 | -1.33 |
| Fam110a | 4 | qiagen single siRNA | 2.06 (active) | 0.431 | 3.69 | 2.59 |
| Fam110a | 5 | qiagen single siRNA | 6.07 (active) | 6.07 | – | 2.59 |
| Fam110a | 6 | qiagen single siRNA | 1.49 | 1.49 | – | 2.59 |
| Hus1 | 1 | ambion single siRNA | 0.344 | -0.508 | 1.2 | 0.518 |
| Hus1 | 2 | ambion single siRNA | 0.35 | 0.518 | 0.183 | 0.518 |
| Hus1 | 3 | ambion single siRNA | 1.38 | 1.38 | – | 0.518 |
| Hus1 | 4 | qiagen single siRNA | 3.13 (active) | 2.64 | 3.61 | 0.95 |
| Hus1 | 5 | qiagen single siRNA | -0.0732 | 0.878 | -1.02 | 0.95 |
| Hus1 | 6 | qiagen single siRNA | 0.554 | 1.02 | 0.087 | 0.95 |
| Gpr4 | 1 | ambion single siRNA | -1.24 | -1.85 | -0.633 | -2.33 |
| Gpr4 | 2 | ambion single siRNA | -2.17 (active) | -2.81 | -1.52 | -2.33 |
| Gpr4 | 3 | ambion single siRNA | -3.97 (active) | -4.29 | -3.66 | -2.33 |
| Gpr4 | 4 | qiagen single siRNA | 1.89 | 2.75 | 1.04 | 1.04 |
| Gpr4 | 5 | qiagen single siRNA | 0.554 | 1.21 | -0.106 | 1.04 |
| Gpr4 | 6 | qiagen single siRNA | -1.82 | -1.82 | – | 1.04 |
| Serpine2 | 1 | ambion single siRNA | -0.0459 | 1.67 | -1.76 | -1.09 |
| Serpine2 | 2 | ambion single siRNA | -0.351 | -0.417 | -0.284 | -1.09 |
| Serpine2 | 3 | ambion single siRNA | -8.59 (active) | -10.5 | -6.72 | -1.09 |
| Serpine2 | 4 | qiagen single siRNA | -0.375 | 0.894 | -1.64 | 0.334 |
| Serpine2 | 5 | qiagen single siRNA | 2.58 (active) | 2.58 | – | 0.334 |
| Serpine2 | 6 | qiagen single siRNA | -0.225 | -0.225 | – | 0.334 |
| Rps4x | 1 | ambion single siRNA | 2.88 (active) | 3.2 | 2.55 | 1.81 |
| Rps4x | 2 | ambion single siRNA | 2.25 (active) | 3.45 | 1.06 | 1.81 |
| Rps4x | 3 | ambion single siRNA | -1.79 | -1.84 | -1.73 | 1.81 |
| Rps4x | 4 | qiagen single siRNA | -0.36 | 0.426 | -1.15 | -1.15 |
| Rps4x | 5 | qiagen single siRNA | -2.3 (active) | -2.66 | -1.93 | -1.15 |
| Rps4x | 6 | qiagen single siRNA | -0.534 | -0.534 | – | -1.15 |
